According to patent US8465912B2, “Methods for the identification of agents that inhibit mesenchymal-like tumor cells or their formation” (OSI Pharmaceuticals, LLC, priority 2009, dated 2013):
For some assays here: At least one structure is not confirmed: it was looked up by name or label, or the drawing left a doubt. Some entries share one result that the patent states for a list of compounds.

Assays:
[1] = system: H1650 cells; experiment: Reversion of EMT by ligand withdrawal; assay type: cell-based, human; conditions: 7 days ligand, then passaged without ligand, combinations keep some residual vimentin
[2] = system: H1650 cells; experiment: Pharmacological inhibition of ligand-induced EMT (Western blot, morphology); assay type: cell-based, human; conditions: MEK inhibitor 1 1 μM, LY294002 10 μM, JAK inhibitor 1 0.25 μM
Method: Supernatents were micro-centrifuged at max speed, 4° C. for 10 minutes. […] SDS PAGE was run using a Bis-Tris gel system (Invitrogen NuPAGE) with MOPS buffer (Invitrogen NP0001), transferred onto nitrocellulose using the iBLOT system (Invitrogen) and blocked in PBS-T (0.1% Tween 20), 5% non-fat milk or BSA in guidance with primary Ab supplier requirements. […] Secondary HRP labeled antibodies used were: anti Rabbit IgG HRP (Amersham NA934) 1:5000 dilution; anti Mouse IgG HRP (Sigma A2304) 1:2000 dilution. Membranes were visualized using the Supersignal ELISA Femto Maximum Sensitivity Substrate (Pierce).
Cells were treated with inhibitor 30 minutes prior to ligand stimulation. Medium, inhibitor and ligand were refreshed on experimental day 3 to 4. Cells were photographed and lysed in RIPA buffer on day 7 for Western blotting.
To determine what signaling pathways are important for EMT in this model, cells were stimulated for 7 days with OSM, HGF+OSM or OSM+TGFβ in the presence of inhibitors to MEK, PI3K and JAK, since these pathways are established downstream effectors of these ligands. After 7 days, we photographed the cells to show morphology and harvested the cells to analyze markers by immunoblot (FIG. 6).

Row | Compound | Time after ligand withdrawal by which E-cadherin and vimentin reverted to or approached basal levels [1] [days] | Effect on HGF+OSM-induced EMT ([2]; 7 days HGF+OSM) | Effect on OSM+TGFβ-induced EMT ([2]; 7 days OSM+TGFβ) | Effect on OSM-induced EMT ([2]; 7 days OSM) | Effect on EMT in all three ligand models (OSM, HGF+OSM, OSM+TGFβ) ([2]; 7 days, immunoblot and morphology)
1 | TGFβ: Transforming growth factor, beta 1, used at 10 ng/ml | ≤ 3 | – | – | – | –
2 | O=c1cc(N2CCOCC2)oc2c(-c3ccccc3)cccc12 [LY294002] | – | partially blocked | little effect | blocked | blocked EMT to varying degrees
